# Source: the supplement of paper PMC8728848
# Some of the results follow.
# B1: HHL-2 (Homo sapiens), P07307 (protein)
# chain: MAKDFQDIQQLSSEENDHPFHQGEGPGTRRLNPRRGNPFLKGPPPAQPLAQRLCSMVCFSLLALSFNILLLVVICVTGSQSEGHRGAQLQAELRSLKEAFSNFSSSTLTEVQAISTHGGSVGDKITSLGAKLEKQQQDLKADHDALLFHLKHFPVDLRFVACQMELLHSNGSQRTCCPVNWVEHQGSCYWFSHSGKAWAEAEKYCQLENAHLVVINSWEEQKFIVQHTNPFNTWIGLTDSDGSWKWVDGTDYRHNYKNWAVTQPDNWHGHELGGSEDCVEVQPDGRWNDDFCLQVYRWVCEKRRNATGEVA
# Tests used:
# Assay in all cases: glycan array binding signal (z-score within array); higher = stronger binding
# Settings in all cases: glycan notation: IUPAC condensed, linker removed
# GlcNAc(b1-4)GlcNAc = biological target: GlcNAc(b1-4)GlcNAc
# How it was run: (§1)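 From the Consortium for Functional Glycomics database, 3228 arrays were curated, keeping only those whose protein sequence was available. Binding is given as a within-array Z-score averaged across arrays sharing a protein sequence and across linkers. Negative Z-scores can be read as non-binding.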
# [1] = biological target: GlcNAc(b1-4)GlcNAc(b1-4)GlcNAc
# How it was run: as §1
# [2] = biological target: GlcNAc(b1-4)GlcNAc(b1-4)GlcNAc(b1-4)GlcNAc(b1-4)GlcNAc
# How it was run: as §1
# [3] = biological target: GlcNAc(b1-4)GlcNAc(b1-4)GlcNAc(b1-4)GlcNAc(b1-4)GlcNAc(b1-4)GlcNAc
# How it was run: as §1
# [4] = biological target: GlcNAc(b1-4)[GlcNAc(b1-6)]GalNAc
# How it was run: as §1
# [5] = biological target: GlcNAc(b1-6)Gal(b1-4)GlcNAc
# How it was run: as §1
# GlcNAc(b1-6)GalNAc = biological target: GlcNAc(b1-6)GalNAc
# How it was run: as §1
# GlcNAc3Prop(b1-4)GlcNAc = biological target: GlcNAc3Prop(b1-4)GlcNAc
# How it was run: as §1
# [6] = biological target: GlcNAc6S(b1-3)Gal(b1-4)GlcNAc
# How it was run: as §1
# Kdn(a2-3)Gal(b1-3)GalNAc = biological target: Kdn(a2-3)Gal(b1-3)GalNAc
# How it was run: as §1
# Kdn(a2-3)Gal(b1-3)GlcNAc = biological target: Kdn(a2-3)Gal(b1-3)GlcNAc
# How it was run: as §1
# Kdn(a2-3)Gal(b1-4)Glc = biological target: Kdn(a2-3)Gal(b1-4)Glc
# How it was run: as §1
# Kdn(a2-3)Gal(b1-4)GlcNAc = biological target: Kdn(a2-3)Gal(b1-4)GlcNAc
# How it was run: as §1
# [7] = biological target: Kdn(a2-3)Gal(b1-4)[Fuc(a1-3)]GlcNAc
# How it was run: as §1
# Kdn(a2-6)Gal(b1-4)GlcNAc = biological target: Kdn(a2-6)Gal(b1-4)GlcNAc
# How it was run: as §1
# [8] = biological target: Man(a1-2)Man(a1-2)Man(a1-3)Man
# How it was run: as §1
# [9] = biological target: Man(a1-2)Man(a1-2)Man(a1-6)[Man(a1-3)]Man
# How it was run: as §1
# Man(a1-2)Man(a1-3)Man = biological target: Man(a1-2)Man(a1-3)Man
# How it was run: as §1
# [10] = biological target: Man(a1-2)Man(a1-3)[Man(a1-2)Man(a1-6)]Man
# How it was run: as §1
# [11] = biological target: Man(a1-2)Man(a1-3)[Man(a1-2)Man(a1-6)]Man(a1-6)[Man(a1-2)Man(a1-2)Man(a1-3)]Man
# How it was run: as §1
# [12] = biological target: Man(a1-2)Man(a1-3)[Man(a1-2)Man(a1-6)]Man(a1-6)[Man(a1-2)Man(a1-2)Man(a1-3)]Man(b1-4)GlcNAc(b1-4)GlcNAc
# How it was run: as §1
# [13] = biological target: Man(a1-2)Man(a1-3)[Man(a1-6)]Man(a1-6)[Man(a1-2)Man(a1-3)]Man(b1-4)GlcNAc(b1-4)GlcNAc
# How it was run: as §1
# [14] = biological target: Man(a1-2)Man(a1-6)[Man(a1-3)]Man(a1-6)[Man(a1-2)Man(a1-2)Man(a1-3)]Man
# How it was run: as §1
# [15] = biological target: Man(a1-2)Man(a1-6)[Man(a1-3)]Man(a1-6)[Man(a1-2)Man(a1-2)Man(a1-3)]Man(b1-4)GlcNAc(b1-4)GlcNAc
# How it was run: as §1
# Man(a1-3)[Man(a1-6)]Man = biological target: Man(a1-3)[Man(a1-6)]Man
# How it was run: as §1
# [16] = biological target: Man(a1-3)[Man(a1-6)]Man(a1-6)[Man(a1-2)Man(a1-3)]Man(b1-4)GlcNAc(b1-4)GlcNAc
# How it was run: as §1
# [17] = biological target: Man(a1-3)[Man(a1-6)]Man(a1-6)[Man(a1-3)]Man
# How it was run: as §1
# [18] = biological target: Man(a1-3)[Man(a1-6)]Man(a1-6)[Man(a1-3)]Man(b1-4)GlcNAc(b1-4)GlcNAc
# How it was run: as §1
# [19] = biological target: Man(a1-3)[Man(a1-6)]Man(b1-4)GlcNAc(b1-4)GlcNAc
# How it was run: as §1
# Man(a1-6)Man = biological target: Man(a1-6)Man
# How it was run: as §1
# Man(b1-4)GlcNAc = biological target: Man(b1-4)GlcNAc
# How it was run: as §1
# Neu5Ac(a2-3)Gal = biological target: Neu5Ac(a2-3)Gal
# How it was run: as §1
# [20] = biological target: Neu5Ac(a2-3)Gal(b1-3)GalNAc
# How it was run: as §1
# [21] = biological target: Neu5Ac(a2-3)Gal(b1-3)GalNAc(b1-3)Gal(a1-4)Gal(b1-4)Glc
# How it was run: as §1
# [22] = biological target: Neu5Ac(a2-3)Gal(b1-3)GalNAc(b1-3)Gal(b1-4)GlcNAc
# How it was run: as §1
# [23] = biological target: Neu5Ac(a2-3)Gal(b1-3)GalNAc(b1-4)[Neu5Ac(a2-3)]Gal(b1-4)Glc
# How it was run: as §1
# [24] = biological target: Neu5Ac(a2-3)Gal(b1-3)GalNAc6S
# How it was run: as §1
# [25] = biological target: Neu5Ac(a2-3)Gal(b1-3)GlcNAc
# How it was run: as §1
# [26] = biological target: Neu5Ac(a2-3)Gal(b1-3)GlcNAc(b1-3)Gal(b1-3)GlcNAc
# How it was run: as §1
# [27] = biological target: Neu5Ac(a2-3)Gal(b1-3)GlcNAc6S
# How it was run: as §1
# [28] = biological target: Neu5Ac(a2-3)Gal(b1-3)[Fuc(a1-4)]GlcNAc
# How it was run: as §1
# [29] = biological target: Neu5Ac(a2-3)Gal(b1-3)[Fuc(a1-4)]GlcNAc(b1-3)Gal(b1-3)[Fuc(a1-4)]GlcNAc
# How it was run: as §1
# [30] = biological target: Neu5Ac(a2-3)Gal(b1-3)[Fuc(a1-4)]GlcNAc(b1-3)Gal(b1-4)[Fuc(a1-3)]GlcNAc
# How it was run: as §1
# [31] = biological target: Neu5Ac(a2-3)Gal(b1-3)[Neu5Ac(a2-3)Gal(b1-4)]GlcNAc
# How it was run: as §1
# [32] = biological target: Neu5Ac(a2-3)Gal(b1-3)[Neu5Ac(a2-6)]GalNAc
# How it was run: as §1
# Neu5Ac(a2-3)Gal(b1-4)Glc = biological target: Neu5Ac(a2-3)Gal(b1-4)Glc
# How it was run: as §1
# [33] = biological target: Neu5Ac(a2-3)Gal(b1-4)GlcNAc
# How it was run: as §1
# [34] = biological target: Neu5Ac(a2-3)Gal(b1-4)GlcNAc(b1-2)Man(a1-3)[GlcNAc(b1-2)Man(b1-4)GlcNAc(b1-2)Man(a1-6)]Man(b1-4)GlcNAc(b1-4)GlcNAc
# How it was run: as §1
# [35] = biological target: Neu5Ac(a2-3)Gal(b1-4)GlcNAc(b1-2)Man(a1-3)[Neu5Ac(a2-6)Gal(b1-4)GlcNAc(b1-2)Man(a1-6)]Man(b1-4)GlcNAc(b1-4)GlcNAc
# How it was run: as §1
# [36] = biological target: Neu5Ac(a2-3)Gal(b1-4)GlcNAc(b1-3)Gal(b1-3)GlcNAc
# How it was run: as §1
# [37] = biological target: Neu5Ac(a2-3)Gal(b1-4)GlcNAc(b1-3)Gal(b1-4)GlcNAc
# How it was run: as §1
# [38] = biological target: Neu5Ac(a2-3)Gal(b1-4)GlcNAc(b1-3)Gal(b1-4)GlcNAc(b1-3)Gal(b1-4)GlcNAc
# How it was run: as §1
# [39] = biological target: Neu5Ac(a2-3)Gal(b1-4)GlcNAc(b1-3)Gal(b1-4)[Fuc(a1-3)]GlcNAc
# How it was run: as §1
# [40] = biological target: Neu5Ac(a2-3)Gal(b1-4)GlcNAc(b1-3)GalNAc
# How it was run: as §1
# [41] = biological target: Neu5Ac(a2-3)Gal(b1-4)GlcNAc(b1-6)[Gal(b1-3)]GalNAc
# How it was run: as §1
# [42] = biological target: Neu5Ac(a2-3)Gal(b1-4)GlcNAc(b1-6)[Neu5Ac(a2-3)Gal(b1-3)]GalNAc
# How it was run: as §1
# [43] = biological target: Neu5Ac(a2-3)Gal(b1-4)GlcNAc6S
# How it was run: as §1
binder,measurement,setting,value
B1,glycan array binding signal (z-score),GlcNAc(b1-4)GlcNAc,-0.562
same,glycan array binding signal (z-score),[1],2.8
same,glycan array binding signal (z-score),[2],0.999
same,glycan array binding signal (z-score),[3],-0.278
same,glycan array binding signal (z-score),[4],-0.749
same,glycan array binding signal (z-score),[5],-0.546
same,glycan array binding signal (z-score),GlcNAc(b1-6)GalNAc,-0.738
same,glycan array binding signal (z-score),GlcNAc3Prop(b1-4)GlcNAc,-0.629
same,glycan array binding signal (z-score),[6],-0.85
same,glycan array binding signal (z-score),Kdn(a2-3)Gal(b1-3)GalNAc,-0.657
same,glycan array binding signal (z-score),Kdn(a2-3)Gal(b1-3)GlcNAc,-0.566
same,glycan array binding signal (z-score),Kdn(a2-3)Gal(b1-4)Glc,-0.347
same,glycan array binding signal (z-score),Kdn(a2-3)Gal(b1-4)GlcNAc,-0.017
same,glycan array binding signal (z-score),[7],0.01
same,glycan array binding signal (z-score),Kdn(a2-6)Gal(b1-4)GlcNAc,-0.456
same,glycan array binding signal (z-score),[8],-0.322
same,glycan array binding signal (z-score),[9],1.36
same,glycan array binding signal (z-score),Man(a1-2)Man(a1-3)Man,-0.028
same,glycan array binding signal (z-score),[10],0.284
same,glycan array binding signal (z-score),[11],-0.391
same,glycan array binding signal (z-score),[12],-0.086
same,glycan array binding signal (z-score),[13],-0.894
same,glycan array binding signal (z-score),[14],1.48
same,glycan array binding signal (z-score),[15],-0.894
same,glycan array binding signal (z-score),Man(a1-3)[Man(a1-6)]Man,0.051
same,glycan array binding signal (z-score),[16],0.822
same,glycan array binding signal (z-score),[17],-0.308
same,glycan array binding signal (z-score),[18],0.756
same,glycan array binding signal (z-score),[19],-0.176
same,glycan array binding signal (z-score),Man(a1-6)Man,-0.681
same,glycan array binding signal (z-score),Man(b1-4)GlcNAc,-0.772
same,glycan array binding signal (z-score),Neu5Ac(a2-3)Gal,0.507
same,glycan array binding signal (z-score),[20],-0.823
same,glycan array binding signal (z-score),[21],0.569
same,glycan array binding signal (z-score),[22],-0.403
same,glycan array binding signal (z-score),[23],0.348
same,glycan array binding signal (z-score),[24],0.143
same,glycan array binding signal (z-score),[25],-0.09
same,glycan array binding signal (z-score),[26],0.812
same,glycan array binding signal (z-score),[27],-0.064
same,glycan array binding signal (z-score),[28],-0.585
same,glycan array binding signal (z-score),[29],0.826
same,glycan array binding signal (z-score),[30],-0.645
same,glycan array binding signal (z-score),[31],-0.699
same,glycan array binding signal (z-score),[32],2.71
same,glycan array binding signal (z-score),Neu5Ac(a2-3)Gal(b1-4)Glc,-0.114
same,glycan array binding signal (z-score),[33],-0.209
same,glycan array binding signal (z-score),[34],2.39
same,glycan array binding signal (z-score),[35],-0.8
same,glycan array binding signal (z-score),[36],3.56
same,glycan array binding signal (z-score),[37],-0.514
same,glycan array binding signal (z-score),[38],1.5
same,glycan array binding signal (z-score),[39],1.82
same,glycan array binding signal (z-score),[40],-0.53
same,glycan array binding signal (z-score),[41],-0.954
same,glycan array binding signal (z-score),[42],2.27
same,glycan array binding signal (z-score),[43],-0.075

# Some of the entries so far, bar-delimited.
binder | measurement | setting | value
B1 | glycan array binding signal (z-score) | [26] | 0.812
same | glycan array binding signal (z-score) | [27] | -0.064
